From the supplement of paper PMC12819154, “High-throughput peptide-centric local stability assay extends protein–ligand identification to membrane proteins, tissues and bacteria” (Nature Structural & Molecular Biology, 2025) come the findings set out here.

Protein sequences, listed by entry. Tags and fused reporters are not part of them. Lines headed by an entry give the natural chain unless they say otherwise; changes in a name come on top.
UniProt Q96GE4: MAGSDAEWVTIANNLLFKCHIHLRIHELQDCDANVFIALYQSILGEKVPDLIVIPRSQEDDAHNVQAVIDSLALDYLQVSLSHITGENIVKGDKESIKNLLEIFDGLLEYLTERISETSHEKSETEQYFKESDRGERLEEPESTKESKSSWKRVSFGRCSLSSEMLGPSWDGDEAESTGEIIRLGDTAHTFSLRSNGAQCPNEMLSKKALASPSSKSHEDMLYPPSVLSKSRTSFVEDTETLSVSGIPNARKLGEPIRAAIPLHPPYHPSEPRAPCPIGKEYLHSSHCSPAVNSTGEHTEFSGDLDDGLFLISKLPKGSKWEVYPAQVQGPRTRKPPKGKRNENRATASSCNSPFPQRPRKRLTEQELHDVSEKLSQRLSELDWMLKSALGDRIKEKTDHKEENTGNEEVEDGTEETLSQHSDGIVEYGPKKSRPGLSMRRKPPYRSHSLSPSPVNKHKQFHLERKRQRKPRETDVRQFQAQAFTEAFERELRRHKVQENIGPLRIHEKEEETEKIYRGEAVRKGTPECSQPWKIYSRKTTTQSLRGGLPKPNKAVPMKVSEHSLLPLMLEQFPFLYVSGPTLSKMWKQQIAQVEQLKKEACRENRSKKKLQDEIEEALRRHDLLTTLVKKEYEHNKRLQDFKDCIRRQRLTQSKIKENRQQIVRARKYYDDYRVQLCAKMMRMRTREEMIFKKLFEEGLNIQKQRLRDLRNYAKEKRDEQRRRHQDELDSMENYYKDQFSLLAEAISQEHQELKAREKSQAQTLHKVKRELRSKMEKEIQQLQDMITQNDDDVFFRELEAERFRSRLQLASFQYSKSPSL
UniProt Q96N21: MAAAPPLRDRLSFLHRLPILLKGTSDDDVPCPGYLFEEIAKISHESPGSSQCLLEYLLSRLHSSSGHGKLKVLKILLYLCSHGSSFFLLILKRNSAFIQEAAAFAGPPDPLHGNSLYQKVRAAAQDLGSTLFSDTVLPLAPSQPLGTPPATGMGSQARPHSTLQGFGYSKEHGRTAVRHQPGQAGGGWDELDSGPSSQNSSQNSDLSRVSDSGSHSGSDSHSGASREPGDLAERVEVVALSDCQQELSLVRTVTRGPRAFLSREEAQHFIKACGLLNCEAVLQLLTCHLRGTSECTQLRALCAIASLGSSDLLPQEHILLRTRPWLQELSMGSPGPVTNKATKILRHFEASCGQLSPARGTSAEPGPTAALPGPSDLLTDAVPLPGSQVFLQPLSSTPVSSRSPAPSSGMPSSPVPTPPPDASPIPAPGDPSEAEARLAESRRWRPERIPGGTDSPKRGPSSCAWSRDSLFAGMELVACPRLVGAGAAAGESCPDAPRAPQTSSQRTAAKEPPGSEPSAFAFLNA
UniProt Q96HR8: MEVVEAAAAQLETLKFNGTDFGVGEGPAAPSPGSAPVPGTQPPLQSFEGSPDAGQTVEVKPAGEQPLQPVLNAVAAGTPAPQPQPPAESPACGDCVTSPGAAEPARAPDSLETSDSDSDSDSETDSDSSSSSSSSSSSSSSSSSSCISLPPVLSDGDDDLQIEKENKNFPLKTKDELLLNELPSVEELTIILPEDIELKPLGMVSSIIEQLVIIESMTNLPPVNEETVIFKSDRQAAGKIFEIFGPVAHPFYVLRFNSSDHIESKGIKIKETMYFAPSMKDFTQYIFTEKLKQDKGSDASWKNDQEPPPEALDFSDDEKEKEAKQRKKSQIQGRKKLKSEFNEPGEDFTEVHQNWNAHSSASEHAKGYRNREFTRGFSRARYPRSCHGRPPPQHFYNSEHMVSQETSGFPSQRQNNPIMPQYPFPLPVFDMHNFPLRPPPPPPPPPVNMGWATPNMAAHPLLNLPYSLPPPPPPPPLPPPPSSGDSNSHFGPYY
UniProt Q96JH7: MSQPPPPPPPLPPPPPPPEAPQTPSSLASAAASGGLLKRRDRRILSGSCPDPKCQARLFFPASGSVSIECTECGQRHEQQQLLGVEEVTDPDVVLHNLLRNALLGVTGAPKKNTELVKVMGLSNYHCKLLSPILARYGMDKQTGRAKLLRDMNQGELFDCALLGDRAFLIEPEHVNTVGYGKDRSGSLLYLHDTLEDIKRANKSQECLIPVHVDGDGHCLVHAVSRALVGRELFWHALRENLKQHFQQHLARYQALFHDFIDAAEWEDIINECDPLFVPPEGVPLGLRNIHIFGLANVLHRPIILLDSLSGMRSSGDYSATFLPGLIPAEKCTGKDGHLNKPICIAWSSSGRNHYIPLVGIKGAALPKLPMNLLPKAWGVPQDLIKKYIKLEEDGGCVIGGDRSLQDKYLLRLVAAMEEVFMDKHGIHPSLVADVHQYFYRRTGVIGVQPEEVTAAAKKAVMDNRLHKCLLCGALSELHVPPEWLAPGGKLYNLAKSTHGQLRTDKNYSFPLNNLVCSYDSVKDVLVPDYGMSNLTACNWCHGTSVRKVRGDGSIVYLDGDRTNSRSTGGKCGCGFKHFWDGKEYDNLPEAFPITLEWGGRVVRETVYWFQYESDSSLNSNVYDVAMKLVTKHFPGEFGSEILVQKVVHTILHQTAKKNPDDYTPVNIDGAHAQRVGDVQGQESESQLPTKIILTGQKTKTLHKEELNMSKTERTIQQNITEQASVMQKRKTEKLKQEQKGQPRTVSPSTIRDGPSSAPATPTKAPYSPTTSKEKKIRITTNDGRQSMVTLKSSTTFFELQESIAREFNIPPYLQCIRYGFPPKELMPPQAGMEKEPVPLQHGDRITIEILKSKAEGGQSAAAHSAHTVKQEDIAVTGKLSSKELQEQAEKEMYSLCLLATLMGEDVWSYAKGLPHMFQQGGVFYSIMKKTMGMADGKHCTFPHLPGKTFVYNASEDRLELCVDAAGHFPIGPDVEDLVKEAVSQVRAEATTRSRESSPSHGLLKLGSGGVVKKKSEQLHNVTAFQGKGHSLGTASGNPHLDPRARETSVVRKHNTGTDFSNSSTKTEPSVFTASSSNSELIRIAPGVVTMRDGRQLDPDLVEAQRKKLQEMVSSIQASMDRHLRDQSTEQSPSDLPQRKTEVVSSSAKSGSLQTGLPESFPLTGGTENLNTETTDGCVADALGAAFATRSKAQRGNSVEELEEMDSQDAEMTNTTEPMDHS
UniProt Q96QC0: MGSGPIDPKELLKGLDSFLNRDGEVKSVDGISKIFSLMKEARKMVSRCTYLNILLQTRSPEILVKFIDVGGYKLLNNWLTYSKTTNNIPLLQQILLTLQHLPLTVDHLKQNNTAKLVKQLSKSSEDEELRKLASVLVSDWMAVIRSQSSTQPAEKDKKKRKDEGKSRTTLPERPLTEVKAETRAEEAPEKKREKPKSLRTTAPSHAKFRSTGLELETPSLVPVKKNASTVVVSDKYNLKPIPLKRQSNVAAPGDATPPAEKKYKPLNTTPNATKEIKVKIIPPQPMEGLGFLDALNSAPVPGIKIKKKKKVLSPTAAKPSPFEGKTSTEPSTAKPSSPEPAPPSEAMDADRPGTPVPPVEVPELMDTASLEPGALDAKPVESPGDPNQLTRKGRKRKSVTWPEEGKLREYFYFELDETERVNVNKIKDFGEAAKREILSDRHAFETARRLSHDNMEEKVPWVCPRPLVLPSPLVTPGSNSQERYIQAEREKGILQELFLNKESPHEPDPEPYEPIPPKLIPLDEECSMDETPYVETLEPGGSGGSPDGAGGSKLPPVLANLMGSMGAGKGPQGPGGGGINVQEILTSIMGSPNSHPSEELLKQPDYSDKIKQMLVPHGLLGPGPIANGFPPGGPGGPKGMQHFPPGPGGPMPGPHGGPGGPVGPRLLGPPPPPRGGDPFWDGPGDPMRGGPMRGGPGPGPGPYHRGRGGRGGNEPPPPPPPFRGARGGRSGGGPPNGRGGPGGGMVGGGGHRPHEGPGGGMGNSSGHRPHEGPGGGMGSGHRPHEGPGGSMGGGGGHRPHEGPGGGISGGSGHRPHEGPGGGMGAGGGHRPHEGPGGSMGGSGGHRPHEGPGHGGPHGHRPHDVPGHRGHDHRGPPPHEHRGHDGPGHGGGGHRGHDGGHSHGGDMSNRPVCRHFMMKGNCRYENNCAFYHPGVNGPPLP
UniProt Q96LW1: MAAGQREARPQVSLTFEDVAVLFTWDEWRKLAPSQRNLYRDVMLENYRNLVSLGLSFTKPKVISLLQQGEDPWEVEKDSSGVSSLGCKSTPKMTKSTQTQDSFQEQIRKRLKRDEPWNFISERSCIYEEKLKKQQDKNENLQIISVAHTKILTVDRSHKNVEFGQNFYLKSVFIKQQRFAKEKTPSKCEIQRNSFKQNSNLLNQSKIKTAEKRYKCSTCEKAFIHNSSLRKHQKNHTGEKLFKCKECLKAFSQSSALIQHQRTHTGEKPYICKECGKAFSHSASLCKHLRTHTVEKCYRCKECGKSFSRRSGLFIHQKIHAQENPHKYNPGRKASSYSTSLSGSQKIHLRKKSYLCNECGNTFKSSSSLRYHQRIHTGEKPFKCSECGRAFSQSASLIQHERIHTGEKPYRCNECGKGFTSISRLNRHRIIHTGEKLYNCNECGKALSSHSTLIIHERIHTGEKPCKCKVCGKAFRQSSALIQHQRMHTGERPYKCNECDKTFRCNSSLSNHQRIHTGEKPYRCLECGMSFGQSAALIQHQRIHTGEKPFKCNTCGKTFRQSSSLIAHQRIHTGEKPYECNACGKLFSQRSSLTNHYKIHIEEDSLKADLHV
UniProt Q96Q11: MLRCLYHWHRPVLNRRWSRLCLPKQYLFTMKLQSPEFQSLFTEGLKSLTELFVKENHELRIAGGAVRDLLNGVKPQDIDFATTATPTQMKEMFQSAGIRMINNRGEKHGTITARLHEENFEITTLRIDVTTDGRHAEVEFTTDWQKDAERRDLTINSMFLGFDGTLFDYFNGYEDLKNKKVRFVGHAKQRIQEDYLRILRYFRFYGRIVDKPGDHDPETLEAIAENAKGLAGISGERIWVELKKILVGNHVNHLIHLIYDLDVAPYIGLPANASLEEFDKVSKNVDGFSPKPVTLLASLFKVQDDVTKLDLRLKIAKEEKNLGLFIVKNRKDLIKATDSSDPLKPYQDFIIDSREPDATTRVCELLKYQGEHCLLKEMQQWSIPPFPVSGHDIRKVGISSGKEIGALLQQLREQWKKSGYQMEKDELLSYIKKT

Some of the results follow. Small differences around the control level are noise.

Compound in this experiment: Cc1nc(Nc2ncc(C(=O)Nc3c(C)cccc3Cl)s2)cc(N2CCN(CCO)CC2)n1 [dasatinib]
As to the kind of experiment: log2 fold change of tryptic peptide abundance, ligand vs vehicle (limited proteolysis) (log2 ratio); higher = more trypsin-susceptible (destabilized). The settings on record: ligand concentration: 5 uM; sample: K562 cleared lysate.
With “UniProt Q96GE4 (peptide sequence: SNGAQCPNEMLSKK, peptide start residue: 195)”, the log2 fold change is -0.691.
As to “UniProt Q96N21 (peptide sequence: APQTSSQR, peptide start residue: 499)”, the log2 fold change is -0.5.
Turning to “NAF1 (peptide sequence: NDQEPPPEALDFSDDEKEKEAK, peptide start residue: 303) (UniProt Q96HR8)”, the log2 fold change is -0.649.
“VCPIP1 (peptide sequence: TLHKEELNMSKTER, peptide start residue: 701) (UniProt Q96JH7)”: the log2 fold change is -0.868.
Regarding “VPS35 (peptide sequence: NYLLQCTR, peptide start residue: 151) (UniProt Q96QK1)”, the log2 fold change was -0.317.
As for “PPP1R10 (peptide sequence: STGLELETPSLVPVKK, peptide start residue: 210) (UniProt Q96QC0)”, the log2 fold change was -0.138.
For “UniProt Q96LW1 (peptide sequence: KHQKNHTGEK, peptide start residue: 231)”, the log2 fold change was -0.259.
Consider “TRNT1 (peptide sequence: SGYQMEKDELLSYIK, peptide start residue: 418) (UniProt Q96Q11)”, for which the log2 fold change was -0.855.
